Data source: PubChem BioAssay AID1224830 (NIAID, 2016)

Test: 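Host factors that control LPS-induced TNF expression in human macrophages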 (primary screen)
Cell system: human THP-1 monocytic leukaemia cells, TNF dual-luciferase reporter clone, PMA-differentiated to macrophage-like cells
Reagents: siRNA pool against human genes, 50 nM
Duration: LPS for 4 h, given about 3 days after siRNA transfection
Treatment: bacterial LPS (TLR4 ligand), 10 ng/ml
Detection: 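Ratio of firefly to renilla light, scaled to the plate median and expressed as a robust z-score per replicate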
Scale: TNF reporter robust z-score: higher = stronger TNF reporter response to LPS
Call rule: 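a well is active when its z-score exceeds 2.8 or falls below -1.5; control wells carry no call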
Here is one part, drawn at random, of about 18,000 reagents. Over the whole deposit, about 2,900 (16%) are marked active. 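Calls are made per well; low scores hint the gene aids the LPS response, high scores that it dampens it.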 Repeated entries: four replicate wells of each siRNA pool.

With CYP3A4 (cytochrome P450 family 3 subfamily A member 4), what was measured?
TNF reporter robust z-score: 0.27; activity call: inactive

Which result is listed for CYP3A4 (cytochrome P450 family 3 subfamily A member 4)?
TNF reporter robust z-score: -0.61; activity call: inactive

For CYP3A4 (cytochrome P450 family 3 subfamily A member 4), what was measured?
TNF reporter robust z-score: 0.14; activity call: inactive

Which result is listed for COL4A1 (collagen type IV alpha 1 chain)?
TNF reporter robust z-score: 1.17; activity call: inactive

With COL4A1 (collagen type IV alpha 1 chain), how do the results read?
TNF reporter robust z-score: 1.1; activity call: inactive

Which result is listed for COL4A1 (collagen type IV alpha 1 chain)?
TNF reporter robust z-score: 0.58; activity call: inactive

How did the screen score COL4A1 (collagen type IV alpha 1 chain)?
TNF reporter robust z-score: -0.39; activity call: inactive

How did the screen score GIPC2 (GIPC PDZ domain containing family member 2)?
TNF reporter robust z-score: 0.49; activity call: inactive

With GIPC2 (GIPC PDZ domain containing family member 2), what was measured?
TNF reporter robust z-score: 0.68; activity call: inactive

With GIPC2 (GIPC PDZ domain containing family member 2), what does the deposit list?
TNF reporter robust z-score: -0.47; activity call: inactive

How did the screen score GIPC2 (GIPC PDZ domain containing family member 2)?
TNF reporter robust z-score: 0.11; activity call: inactive

What is on record for SLC6A4?
TNF reporter robust z-score: 0.39; activity call: inactive

With SLC6A4, what does the deposit list?
TNF reporter robust z-score: 0.52; activity call: inactive

What did the screen give for SLC6A4?
TNF reporter robust z-score: 0.57; activity call: inactive

How did the screen score SLC6A4?
TNF reporter robust z-score: 1.44; activity call: inactive

How did the screen score GGN (gametogenetin)?
TNF reporter robust z-score: -0.96; activity call: inactive

With GGN (gametogenetin), how do the results read?
TNF reporter robust z-score: -0.56; activity call: inactive

For GGN (gametogenetin), how do the results read?
TNF reporter robust z-score: -0.3; activity call: inactive

For GGN (gametogenetin), how do the results read?
TNF reporter robust z-score: -0.55; activity call: inactive

How did the screen score CHD2 (chromodomain helicase DNA binding protein 2)?
TNF reporter robust z-score: 2.17; activity call: inactive

With CHD2 (chromodomain helicase DNA binding protein 2), how do the results read?
TNF reporter robust z-score: 1.84; activity call: inactive

With CHD2 (chromodomain helicase DNA binding protein 2), what does the deposit list?
TNF reporter robust z-score: 1.03; activity call: inactive

With CHD2 (chromodomain helicase DNA binding protein 2), what does the deposit list?
TNF reporter robust z-score: 0.95; activity call: inactive

How did the screen score CCSER2 (coiled-coil serine rich protein 2)?
TNF reporter robust z-score: -0.05; activity call: inactive

With CCSER2 (coiled-coil serine rich protein 2), what does the deposit list?
TNF reporter robust z-score: -0.48; activity call: inactive

Which result is listed for CCSER2 (coiled-coil serine rich protein 2)?
TNF reporter robust z-score: -0.45; activity call: inactive

For DHH (desert hedgehog signaling molecule), what was measured?
TNF reporter robust z-score: 1.82; activity call: inactive

What did the screen give for DHH (desert hedgehog signaling molecule)?
TNF reporter robust z-score: 1.28; activity call: inactive

For DHH (desert hedgehog signaling molecule), what does the deposit list?
TNF reporter robust z-score: 4.8; activity call: active

Which result is listed for DHH (desert hedgehog signaling molecule)?
TNF reporter robust z-score: -0.32; activity call: inactive

For OR5M10 (olfactory receptor family 5 subfamily M member 10), how do the results read?
TNF reporter robust z-score: -0.02; activity call: inactive

With OR5M10 (olfactory receptor family 5 subfamily M member 10), what does the deposit list?
TNF reporter robust z-score: -0.33; activity call: inactive

How did the screen score OR5M10 (olfactory receptor family 5 subfamily M member 10)?
TNF reporter robust z-score: -1.08; activity call: inactive

With OR5M10 (olfactory receptor family 5 subfamily M member 10), what does the deposit list?
TNF reporter robust z-score: -0.73; activity call: inactive

How did the screen score KRTAP19-5 (keratin associated protein 19-5)?
TNF reporter robust z-score: 0.55; activity call: inactive

For KRTAP19-5 (keratin associated protein 19-5), how do the results read?
TNF reporter robust z-score: 1.56; activity call: inactive

With KRTAP19-5 (keratin associated protein 19-5), what was measured?
TNF reporter robust z-score: 2.24; activity call: inactive

With KRTAP19-5 (keratin associated protein 19-5), how do the results read?
TNF reporter robust z-score: 1; activity call: inactive

With ABHD12B (abhydrolase domain containing 12B), what does the deposit list?
TNF reporter robust z-score: 0.16; activity call: inactive

How did the screen score ABHD12B (abhydrolase domain containing 12B)?
TNF reporter robust z-score: 1.34; activity call: inactive

With ABHD12B (abhydrolase domain containing 12B), what was measured?
TNF reporter robust z-score: 0.6; activity call: inactive

With ABHD12B (abhydrolase domain containing 12B), how do the results read?
TNF reporter robust z-score: 0.87; activity call: inactive

How did the screen score APBB1 (amyloid beta precursor protein binding family B member 1)?
TNF reporter robust z-score: -0.71; activity call: inactive

With APBB1 (amyloid beta precursor protein binding family B member 1), what was measured?
TNF reporter robust z-score: -0.39; activity call: inactive

With APBB1 (amyloid beta precursor protein binding family B member 1), what does the deposit list?
TNF reporter robust z-score: -0.05; activity call: inactive

Which result is listed for APBB1 (amyloid beta precursor protein binding family B member 1)?
TNF reporter robust z-score: 0.35; activity call: inactive

How did the screen score NUP93 (nucleoporin 93)?
activity call: inactive

Which result is listed for NUP93 (nucleoporin 93)?
TNF reporter robust z-score: 0.14; activity call: inactive

How did the screen score NUP93 (nucleoporin 93)?
TNF reporter robust z-score: -0.07; activity call: inactive

How did the screen score NUP93 (nucleoporin 93)?
TNF reporter robust z-score: -0.23; activity call: inactive

Which result is listed for CSF2RB (colony stimulating factor 2 receptor subunit beta)?
TNF reporter robust z-score: -0.63; activity call: inactive

What did the screen give for CSF2RB (colony stimulating factor 2 receptor subunit beta)?
TNF reporter robust z-score: -0.53; activity call: inactive

For CSF2RB (colony stimulating factor 2 receptor subunit beta), how do the results read?
TNF reporter robust z-score: -0.52; activity call: inactive

With OR1I1 (olfactory receptor family 1 subfamily I member 1), what does the deposit list?
TNF reporter robust z-score: 2.42; activity call: inactive

What did the screen give for OR1I1 (olfactory receptor family 1 subfamily I member 1)?
TNF reporter robust z-score: 1.68; activity call: inactive

What did the screen give for OR1I1 (olfactory receptor family 1 subfamily I member 1)?
TNF reporter robust z-score: 0.02; activity call: inactive

What is on record for OR1I1 (olfactory receptor family 1 subfamily I member 1)?
TNF reporter robust z-score: 0; activity call: inactive

How did the screen score LARP4 (La ribonucleoprotein 4)?
TNF reporter robust z-score: 0.23; activity call: inactive

What is on record for LARP4 (La ribonucleoprotein 4)?
TNF reporter robust z-score: 0.15; activity call: inactive

How did the screen score LARP4 (La ribonucleoprotein 4)?
TNF reporter robust z-score: -0.76; activity call: inactive

For LARP4 (La ribonucleoprotein 4), what does the deposit list?
TNF reporter robust z-score: -0.01; activity call: inactive
